# Assay results published in article PMC8630118.
# By UniProt entry, the sequences of proteins in these tests, tags left out.
# UniProt O15198: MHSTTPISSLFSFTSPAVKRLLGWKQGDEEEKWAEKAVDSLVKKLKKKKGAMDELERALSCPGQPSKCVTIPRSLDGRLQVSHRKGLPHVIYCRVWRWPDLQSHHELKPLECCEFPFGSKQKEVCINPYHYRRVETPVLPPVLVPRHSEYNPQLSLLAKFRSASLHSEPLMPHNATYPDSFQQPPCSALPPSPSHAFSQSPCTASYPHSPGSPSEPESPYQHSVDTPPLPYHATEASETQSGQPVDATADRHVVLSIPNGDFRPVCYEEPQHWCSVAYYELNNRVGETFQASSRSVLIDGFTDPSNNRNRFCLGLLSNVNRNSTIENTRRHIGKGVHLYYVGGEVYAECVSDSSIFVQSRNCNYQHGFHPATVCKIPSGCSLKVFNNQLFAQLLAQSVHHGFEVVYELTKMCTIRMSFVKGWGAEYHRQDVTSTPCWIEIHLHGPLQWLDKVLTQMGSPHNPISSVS
# These are yes or no findings as the source states them, for the method shown. Binding seen in cells or lysates may run through a third protein. Some results given as binding are weak or reduced against the parent protein; the word gives no strength. Sequences can lack the tags named with a protein.
# B1: Myc-tagged ASB2 (Ankyrin repeat and SOCS box containing 2) (protein, UniProt Q96Q27 1-635)
# chain: MATQISTRGSQCTIGQEEYSLYSSLSEDELVQMAIEQSLADKTRGPTTAEATASACTNRQPAHFYPWTRSTAPPESSPARAPMGLFQGVMQKYSSSLFKTSQLAPADPLIKAIKDGDEEALKTMIKEGKNLAEPNKEGWLPLHEAAYYGQVGCLKVLQRAYPGTIDQRTLQEETAVYLATCRGHLDCLLSLLQAGAEPDISNKSRETPLYKACERKNAEAVKILVQHNADTNHRCNRGWTALHESVSRNDLEVMQILVSGGAKVESKNAYGITPLFVAAQSGQLEALRFLAKYGADINTQASDNASALYEACKNEHEEVVEFLLSQGADANKTNKDGLLPLHIASKKGNYRIVQMLLPVTSRTRIRRSGVSPLHLAAERNHDEVLEALLSARFDVNTPLAPERARLYEDRRSSALYFAVVNNNVYATELLLQHGADPNRDVISPLLVAIRHGCLRTMQLLLDHGANIDAYIATHPTAFPATIMFAMKCLSLLKFLMDLGCDGEPCFSCLYGNGPHPPAPQPSSRFNDAPAADKEPSVVQFCEFVSAPEVSRWAGPIIDVLLDYVGNVQLCSRLKEHIDSFEDWAVIKEKAEPPRPLAHLCRLRVRKAIGKYRIKLLDTLPLPGRLIRYLKYENTQ
# Biological target: Flag-tagged SMAD9 (UniProt O15198)
# Test: co-IP; HEK293T cells transfected with Myc-ASB2 and Flag-SMAD9, 24 h after transfection; Flag-immunoprecipitates (1 mg protein, 10 µL beads, overnight at 4 °C; lysis buffer 1% CHAPS, 150 mM NaCl, 20 mM MOPS, 1 mM EDTA, 10% glycerol), SDS-PAGE and immunoblot
binder,measurement,value
B1,binding,binds
